The values that follow come from publication PMC4940160, “Architecture and RNA binding of the human negative elongation factor”.

The comparison behind a weaker result is the experiment's own reference, which may not be listed here.

This series deals with NELF-A (6-188) + NELF-C (183-590). Put plainly: fluorescence anisotropy. The note with it: NELF-AC: 30 mM NaCl, 3 mM MgCl2, 10 mM Na-HEPES pH 7.4, 2 mM DTT, 50 ug/ml BSA, other NELF complexes: same with 60 mM NaCl and 5 ug/ml yeast tRNA, 10 nM nucleic acid, recombinant protein, protein details: N-His6 removed by thrombin,none, label: 5'-FAM. For orientation: Fluorescence polarisation rises when a labelled molecule tumbles more slowly, as on binding a larger partner.

Take AGGGAGCTGGGAGCTGGGGG [junB ssDNA]: the binding result (single-stranded DNA) was “binds more weakly”.

For CCGCAUCUGCAGCGAGCAUCUGAGA [c-fos ssRNA], the binding result (binds, prefers DNA) is reported as “binds more weakly”.
